For one molecule, binding results are on record in doi:10.1101/2025.09.28.679056.

By UniProt entry, the sequences of proteins in these tests, tags left out.
UniProt O96001: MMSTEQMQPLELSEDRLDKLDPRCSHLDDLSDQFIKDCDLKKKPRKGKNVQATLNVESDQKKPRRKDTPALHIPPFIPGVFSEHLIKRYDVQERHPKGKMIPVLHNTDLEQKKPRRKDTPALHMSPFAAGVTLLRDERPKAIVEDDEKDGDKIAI

These are yes or no findings as the source states them, for the method shown. Binding seen in cells or lysates may run through a third protein. A yes stands for co-enrichment or nearness to the bait. Other partners may have been found.

In this assay the target is PPP1R17 tagged to GFP (UniProt O96001). As to the kind of experiment: affinity purification with mass spectrometry.

B1: Ppp2r2d (protein, UniProt Q925E7 1-453)
chain: MAGAGGGGCPAGGNDFQWCFSQVKGAVDEDVAEADIISTVEFNYSGDLLATGDKGGRVVIFQREQENKGRAHSRGEYNVYSTFQSHEPEFDYLKSLEIEEKINKIRWLPQQNAAHFLLSTNDKTIKLWKISERDKRAEGYNLKDEDGRLRDPFRITALRVPILKPMDLMVEASPRRIFANAHTYHINSISVNSDHETYLSADDLRINLWHLEITDRSFNIVDIKPANMEELTEVITAAEFHPHQCNVFVYSSSKGTIRLCDMRSSALCDRHAKFFEEPEDPSSRSFFSEIISSISDVKFSHSGRYMMTRDYLSVKVWDLNMEGRPVETHQVHEYLRSKLCSLYENDCIFDKFECCWNGSDSAIMTGSYNNFFRMFDRNTRRDVTLEASRENSKPRASLKPRKVCTGGKRKKDEISVDSLDFNKKILHTAWHPMESIIAVAATNNLYIFQDKIN
For B1, the binding result was “binds”.
